Results: PubChem BioAssay AID286 (DTP/NCI, 2004)
The list shows only some results of the screen, not a fair sample: it is rich in T/C values a quarter to a half above the control, in often repeated tests (any T/C) and in doses without a T/C. Other doses and runs of a compound stand elsewhere. T/C is the treated group as % of the vehicle group. Some doses have a count of surviving animals in place of a T/C: the source holds a T/C of zero for them, seemingly a mark for toxic or unscored doses. Some survivor counts are full or nearly so, which does not show that the dose was tolerated: survival well below the control is almost never listed, so the zero probably covers shortened survival too. Counts of survivors are from the toxicity check (mostly the fifth day) where no day follows; animals may have died later. Schedules are NCI's codes, taken here to give the interval after Q, in days (D) or hours (H), and the number of doses after X. Some doses were run more than once; their values stand side by side, smallest first. Some molecules as drawn cover several salts, stereoisomers or complexes of the source; a dose is that of the sample tested. Where survival is the endpoint, the PubChem record calls one and a half times the control and up active, and a quarter to a half above the control has no call in these data; cut-offs in other NCI protocols can differ. Some T/C values carry the count of animals alive at the toxicity check (mostly the fifth day); where none is given, no animal had died by that day.

System: BDF1 mice, M5076 sarcoma ip, median survival T/C
Assay: NCI In Vivo Anticancer Drug Screen. Data for tumor model Sarcoma M5076 (intraperitoneal) in B6D2F1 (BDF1) mice
Conditions: T/C endpoint: median survival time, higher T/C = longer survival
Protocol: The antitumor activity of compounds was measured in mice bearing transplantable tumors. Survival or tumor size were measured and the results are expressed as the measurement made in the treated group (T) divided by the measurement made in the vehicle treated control group (C). The tumor model used in this assay is Sarcoma M5076 (intraperitoneal) in B6D2F1 (BDF1) mice

[1] = dose: 2.5 mg/kg/injection, schedule: Q04DX005 (ip), vehicle: sodium bicarbonate
[2] = dose: 40.0 mg/kg/injection, schedule: Q04DX004 (ip), vehicle: sodium bicarbonate
[3] = dose: 40.0 mg/kg/injection, schedule: Q04DX005 (ip), vehicle: sodium bicarbonate
[4] = dose: 4.0 mg/kg/injection, schedule: Q04DX005 (ip), vehicle: saline

CN(Cc1cnc2nc(N)nc(N)c2n1)c1ccc(C(=O)N[C@@H](CCC(=O)O)C(=O)O)cc1
T/C (dose: 1.1 mg/kg/injection, schedule: Q01DX009 (ip), vehicle: sodium bicarbonate): 139 % of control | T/C (dose: 2.5 mg/kg/injection, schedule: Q04DX004 (ip), vehicle: sodium bicarbonate): 94, 100, 105, 106 % of control | T/C [1]: 93 and 99 % of control | survivor count [1]: 10 of 10 on day 9 | T/C (dose: 5.0 mg/kg/injection, schedule: Q04DX004 (ip), vehicle: sodium bicarbonate): 91, 93, 93 [9 of 10 alive on day 9], 99 % of control | T/C (dose: 5.0 mg/kg/injection, schedule: Q04DX005 (ip), vehicle: sodium bicarbonate, evaluated on day 75): 97, 98, 103, 110 % of control | T/C (dose: 5.0 mg/kg/injection, schedule: Q04DX005 (ip), vehicle: sodium bicarbonate, evaluated on day 90): 95 % of control | T/C (dose: 10.0 mg/kg/injection, schedule: Q04DX004 (ip), vehicle: sodium bicarbonate): 90, 101, 105, 111 % of control | T/C (dose: 10.0 mg/kg/injection, schedule: Q04DX005 (ip), vehicle: sodium bicarbonate, evaluated on day 75): 90, 91, 103, 114 % of control | T/C (dose: 10.0 mg/kg/injection, schedule: Q04DX005 (ip), vehicle: sodium bicarbonate, evaluated on day 90): 106 % of control | survivor count (dose: 16.0 mg/kg/injection, schedule: Q04DX005 (ip), vehicle: sodium bicarbonate): 6 of 8 on day 17 | T/C (dose: 20.0 mg/kg/injection, schedule: Q04DX004 (ip), vehicle: sodium bicarbonate): 87, 103, 107, 115 % of control [9 of 10 alive on day 9] | T/C (dose: 20.0 mg/kg/injection, schedule: Q04DX005 (ip), vehicle: sodium bicarbonate, evaluated on day 75): 89, 90 [8 of 10 alive on day 9], 94, 100 % of control | T/C (dose: 20.0 mg/kg/injection, schedule: Q04DX005 (ip), vehicle: sodium bicarbonate, evaluated on day 90): 99 % of control | survivor count (dose: 32.0 mg/kg/injection, schedule: Q04DX005 (ip), vehicle: sodium bicarbonate): 0 of 8 on day 17 | T/C [2]: 92, 106, 123 % of control | survivor count [2]: 8 of 10 on day 9 | T/C [3]: 89, 97, 111 % of control | survivor count [3]: 1 of 10 on day 9 and 10 of 10

CC[N+](CC)(CC)CC
T/C (dose: 3.89 mg/kg/injection, schedule: Q04DX005 (ip), vehicle: saline with Tween-80): 134 % of control | T/C (dose: 6.48 mg/kg/injection, schedule: Q04DX005 (ip), vehicle: saline with Tween-80): 128 % of control | survivor count (dose: 18.0 mg/kg/injection, schedule: Q04DX005 (ip), vehicle: saline with Tween-80): 5 of 10 on day 17 | survivor count (dose: 30.0 mg/kg/injection, schedule: Q04DX005 (ip), vehicle: saline with Tween-80): 2 of 10 on day 17

COC(=O)Nc1ccc(Cc2ccc(NC(=O)OC)cc2)cc1
survivor count (dose: 800.0 mg/kg/injection, schedule: Q04DX004 (ip), vehicle: saline with Tween-80): 6 of 10 on day 14

O=C1c2c(O)ccc(O)c2C(=O)c2c(NCCNCCO)ccc(NCCNCCO)c21
survivor count [4]: 2 of 8 on day 17 | survivor count (dose: 8.0 mg/kg/injection, schedule: Q04DX004 (ip), vehicle: water): 8 of 8 on day 9 | survivor count (dose: 8.0 mg/kg/injection, schedule: Q04DX005 (ip), vehicle: saline): 0 of 8 on day 17

CCC/C=C/C=C/C(=O)OC1/C(=C/C(=O)OC)CC2CC(C(C)O)OC(=O)CC(O)CC3CC(OC(C)=O)C(C)(C)C(O)(CC4C/C(=C/C(=O)OC)CC(/C=C/C(C)(C)C1(O)O2)O4)O3 (stereo unspecified)
T/C (dose: 5.0 micrograms/kg/injection, schedule: Q01DX009 (ip), vehicle: saline + Tween-80 + alcohol): 131 % of control | T/C (dose: 5.0 micrograms/kg/injection, schedule: Q01DX009 (ip), vehicle: saline + alcohol): 140 % of control | T/C (dose: 10.0 micrograms/kg/injection, schedule: Q01DX009 (ip), vehicle: saline + Tween-80 + alcohol): 148 % of control | T/C (dose: 10.0 micrograms/kg/injection, schedule: Q01DX009 (ip), vehicle: saline + alcohol): 145 % of control [9 of 10 alive on day 9] | T/C (dose: 20.0 micrograms/kg/injection, schedule: Q01DX009 (ip), vehicle: saline + alcohol): 148 % of control | T/C (dose: 40.0 micrograms/kg/injection, schedule: Q01DX009 (ip), vehicle: saline + alcohol): 128 % of control [9 of 10 alive on day 9] | survivor count (dose: 62.5 micrograms/kg/injection, schedule: Q01DX009 (ip), vehicle: saline + alcohol): 4 of 10 on day 9 | survivor count (dose: 80.0 micrograms/kg/injection, schedule: Q01DX009 (ip), vehicle: saline + alcohol): 6 of 10 on day 9 | survivor count (dose: 125.0 micrograms/kg/injection, schedule: Q01DX009 (ip), vehicle: saline + alcohol): 0 of 10 on day 9 | survivor count (dose: 250.0 micrograms/kg/injection, schedule: Q01DX009 (ip), vehicle: saline + alcohol): 0 of 10 on day 9 | survivor count (dose: 500.0 micrograms/kg/injection, schedule: Q01DX009 (ip), vehicle: saline + alcohol): 0 of 10 on day 9 | survivor count (dose: 1000.0 micrograms/kg/injection, schedule: Q01DX009 (ip), vehicle: saline + alcohol): 0 of 10 on day 9

Nc1n[nH]c2ccccc12
survivor count (dose: 400.0 mg/kg/injection, schedule: Q04DX004 (ip), vehicle: acid diluted with saline): 6 of 10 on day 14 | survivor count (dose: 800.0 mg/kg/injection, schedule: Q04DX004 (ip), vehicle: acid diluted with saline): 0 of 10 on day 14

NC1=NC(O)C=C1 (stereo unspecified)
T/C (dose: 6.25 mg/kg/injection, schedule: Q01DX009 (ip), vehicle: saline): 137 % of control | T/C (dose: 10.0 mg/kg/injection, schedule: Q01DX009 (ip), vehicle: saline): 144 % of control | T/C (dose: 12.5 mg/kg/injection, schedule: Q01DX009 (ip), vehicle: saline): 144 % of control | survivor count (dose: 80.0 mg/kg/injection, schedule: Q01DX009 (ip), vehicle: saline): 0 of 10 on day 9 | survivor count (dose: 160.0 mg/kg/injection, schedule: Q01DX009 (ip), vehicle: saline): 0 of 10 on day 9

CCC1(O)CC2CN(CCc3c([nH]c4ccccc34)C(C(=O)OC)(c3cc4c(cc3OC)N(C)C3C(O)(C(N)=O)C(O)C5(CC)C=CCN6CCC43C65)C2)C1 (stereo unspecified) (tested in a mixture with another compound)
T/C (dose: 0.25 mg/kg/injection, schedule: Q04DX005 (ip), vehicle: saline): 128 % of control | T/C (dose: 2.0 mg/kg/injection, schedule: Q04DX005 (ip), vehicle: saline): 140 % of control [7 of 8 alive on day 17] | survivor count [4]: 0 of 8 on day 17

COC(=O)NC1C(C)OC(OC2C/C=C(/C)C3C=CC4C(OC5CC(OC6CCC(OC7CC(O)C(OC8CCC(O)C(C)O8)C(C)O7)C(C)O6)C(OC(C)=O)C(C)O5)C(C)CC(C)C4C3(C)/C(O)=C3/C(=O)OC4(CC(C=O)=CC(O)C4/C=C\2C)C3=O)CC1(C)[N+](=O)[O-] (stereo unspecified)
survivor count (dose: 20.0 mg/kg/injection, schedule: Q04DX004 (ip), vehicle: water): 7 of 10 on day 14 | survivor count (dose: 40.0 mg/kg/injection, schedule: Q04DX004 (ip), vehicle: water): 0 of 10 on day 14

CC(=O)N(C)c1ccc(Nc2cc(C)[nH]c3ccc4ncnc4c23)cc1
T/C (dose: 10.0 mg/kg/injection, schedule: Q04DX004 (ip), vehicle: saline): 125 % of control | T/C (dose: 20.0 mg/kg/injection, schedule: Q04DX004 (ip), vehicle: saline): 138 % of control | T/C (dose: 40.0 mg/kg/injection, schedule: Q04DX004 (ip), vehicle: saline): 133 % of control | T/C (dose: 80.0 mg/kg/injection, schedule: Q04DX004 (ip), vehicle: saline): 139 % of control | survivor count (dose: 160.0 mg/kg/injection, schedule: Q04DX004 (ip), vehicle: saline): 1 of 8 on day 9
